PubChem BioAssay AID504793 | Drosophila RNAi Screening Center | 2011
The deposit covers about 23,000 reagents; below is an unselected part of those with a known target gene and a result. Over the whole deposit, 62 (0.27%) got an active call. 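Calls come from follow-up tests whose scores are not deposited, so confirmed genes may have low counts here; counts are not normalised per plate.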 Raw values are not corrected between plates. A plus sign joins genes that one reagent is predicted to hit. No sequences are given here.

Test: 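Knock-downs allowing continued mitosis even though DNA is damaged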 (primary screen)
System: Drosophila S2R+ cells
Reagent: long dsRNA against Drosophila genes, about 0.25 µg dsRNA per well
Time to read-out: 4 days of dsRNA, then 4 hours of drug before read-out
Conditions: doxorubicin 0.5 µM for 4 hours to cause double-strand breaks, in cells also given a low, harmless dose of dsRNA against nbs to sensitise the assay
Measurement: 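Mitotic index as the number of phospho-histone H3-positive cells in each well following doxorubicin, given as raw counts without normalisation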
Direction: mitotic cells: higher = more cells in mitosis, weaker G2 arrest
Rule for the call: 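Genes are called active only when high mitotic counts were reproduced with independent dsRNAs and mitosis was checked for delay without damage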
Calls: active = confirmed in follow-up tests; inactive = not confirmed

gene	dsRNA	mitotic cells, replicate 1	mitotic cells, replicate 2	Outcome
Vamp7 (Vesicle-associated membrane protein 7)	DRSC06599	5		inactive
CG11333	DRSC14301	4		inactive
CG1889 + CG43386	DRSC17979	9		inactive
Vps13 (Vacuolar protein sorting 13)	DRSC06817	4		inactive
Vps13 (Vacuolar protein sorting 13)	DRSC29275	3		inactive
croc (crocodile)	DRSC11884	1		inactive
croc (crocodile)	DRSC29346	7		inactive
zormin	DRSC07969	4		inactive
zormin	DRSC08210	6		inactive
zormin	DRSC08212	4		inactive
zormin	DRSC08213	5		inactive
zormin	DRSC08297	6		inactive
zormin	DRSC22483	12		inactive
CG18609	DRSC06775	3		inactive
CG18609	DRSC27601	4		inactive
Snx27 (Sorting nexin 27)	DRSC17786	11		inactive
Snx27 (Sorting nexin 27)	DRSC18282	12		inactive
Snx27 (Sorting nexin 27)	DRSC18284	23		inactive
Aasdh (Aminoadipate-semialdehyde dehydrogenase)	DRSC03467	6		inactive
Fkbp14 (FK506-binding protein 14)	DRSC04615	14		inactive
CG5225	DRSC24962	15		inactive
CARPA (Carbonic anhydrase-related protein A)	DRSC17905	8		inactive
CARPA (Carbonic anhydrase-related protein A)	DRSC21633	5		inactive
CG12672	DRSC19482	17		inactive
CG12672	DRSC24282	1		inactive
CecC (Cecropin C)	DRSC16606	9		inactive
fy (fuzzy)	DRSC03533	6		inactive
fy (fuzzy)	DRSC25931	2		inactive
mRpL13 (mitochondrial ribosomal protein L13)	DRSC02076	7		inactive
mRpL13 (mitochondrial ribosomal protein L13)	DRSC30067	5		inactive
Dolk (Dolichol kinase)	DRSC07143	4		inactive
Pepck2 (Phosphoenolpyruvate carboxykinase 2)	DRSC06013	8		inactive
Pepck2 (Phosphoenolpyruvate carboxykinase 2)	DRSC26167	3		inactive
CG30183	DRSC04450	4		inactive
CG30183	DRSC04472	3		inactive
PH4alphaNE1 (prolyl-4-hydroxylase-alpha NE1)	DRSC16546	3		inactive
PH4alphaNE1 (prolyl-4-hydroxylase-alpha NE1)	DRSC26942	5		inactive
CG13288	DRSC09962	2		inactive
CG6052	DRSC10574	3		inactive
sr (stripe)	DRSC13284	8		inactive
sr (stripe)	DRSC25793	10		inactive
RpL18A (Ribosomal protein L18A)	DRSC07538	5		inactive
CG42827 + CG42828	DRSC16116	12	9	inactive
fs(1)Ya (female sterile (1) Young arrest)	DRSC23058	21		inactive
Stat92E	DRSC16870	9		inactive
Stat92E	DRSC37655	11		inactive
CG13177	DRSC06303	5		inactive
CG17364	DRSC10269	5		inactive
CG17364	DRSC10270	8		inactive
CG17364	DRSC22689	11		inactive
CG17364	DRSC29363	4		inactive
Dic1	DRSC14125	6		inactive
CG32266	DRSC08062	8		inactive
CG32266	DRSC27644	3		inactive
CG13564	DRSC04201	5		inactive
mRpL37 (mitochondrial ribosomal protein L37)	DRSC16062	8		inactive
CG14736	DRSC14956	5		inactive
CG14736	DRSC23985	6		inactive
jb (jean-baptiste)	DRSC20531	11		inactive
CG3566	DRSC18311	15		inactive
CG3566	DRSC29311	9		inactive
wbl (windbeutel)	DRSC07718	4		inactive
wbl (windbeutel)	DRSC26561	8		inactive
CG31075	DRSC16016	12		inactive
CG5267	DRSC06928	6		inactive
CG16976 (retired record)	DRSC08499	7		inactive
CG16976 (retired record)	DRSC23483	4		inactive
CG16976 (retired record)	DRSC25709	4		inactive
Stt3B	DRSC16781	14		inactive
Alp8 (Alkaline phosphatase 8)	DRSC04353	6		inactive
Alp8 (Alkaline phosphatase 8)	DRSC27635	7		inactive
Sgs1 (Salivary gland secretion 1)	DRSC00787	3		inactive
chp (chaoptin)	DRSC16925	3		inactive
chp (chaoptin)	DRSC26106	2		inactive
alpha-Man-IIa (alpha-Mannosidase class II a)	DRSC15393	3		inactive
TTLL3B (Tubulin tyrosine ligase-like 3B)	DRSC02133	1		inactive
CG13457	DRSC10004	2		inactive
CG13457	DRSC29775	12		inactive
CG14556	DRSC14899	6		inactive
CG32436	DRSC11683	6		inactive
CG32436	DRSC11796	3		inactive
Art8 (Arginine methyltransferase 8)	DRSC02530	5		inactive
GluRIIB (Glutamate receptor IIB)	DRSC03335			inactive
Hou (Houki)	DRSC20001	6		inactive
Hou (Houki)	DRSC22347	9		inactive
Hou (Houki)	DRSC26803	7		inactive
Crk (Crk oncogene)	DRSC17163	3		inactive
Rim (Rab3 interacting molecule)	DRSC16224	6		inactive
Rim (Rab3 interacting molecule)	DRSC16226	4		inactive
Rim (Rab3 interacting molecule)	DRSC16227	8		inactive
Rim (Rab3 interacting molecule)	DRSC22406	9		inactive
Pits (Protein interacting with Ttk69 and Sin3A)	DRSC19385	10		inactive
Pits (Protein interacting with Ttk69 and Sin3A)	DRSC25013	2		inactive
da	DRSC03517	3		inactive
CG12929	DRSC06242	5		inactive
CG1677	DRSC18116	19		inactive
Arc1 (Activity-regulated cytoskeleton associated protein 1)	DRSC06159	12		inactive
Arc1 (Activity-regulated cytoskeleton associated protein 1)	DRSC28128	12		inactive
CG18294 + 825-Oak + CG32214 + 2 more	DRSC22210	4		inactive
CG12641 (retired record)	DRSC23059	16		inactive
CG15545	DRSC15083	17		inactive
CG15545	DRSC29523	6		inactive
ASPP	DRSC23069	12		inactive
CG13623	DRSC14625	18		inactive
CG15262	DRSC01975	4		inactive
CG11878	DRSC14422	10		inactive
CG11878	DRSC24563	17		inactive
hgo (homogentisate 1,2-dioxygenase)	DRSC03544	6		inactive
CG5466	DRSC23002	10		inactive
CG5466	DRSC25795	1		inactive

Taken from above:
wbl (windbeutel) [DRSC07718], mitotic cells, replicate 1 → 4
Entry for Fkbp14 (FK506-binding protein 14) [DRSC04615] in “mitotic cells, replicate 1”: 14
Entry of CG5225 [DRSC24962] under “mitotic cells, replicate 1”: 15
Arc1 (Activity-regulated cytoskeleton associated protein 1) [DRSC28128], mitotic cells, replicate 1 → 12
CG30183 [DRSC04450], mitotic cells, replicate 1 → 4
CG16976 (retired record) [DRSC08499], mitotic cells, replicate 1 → 7
